No constants are given. Whether binding was seen depends on the method and setting. Binding seen in cells or lysates may run through a third protein. Some results given as binding are weak or reduced against the parent protein; the word gives no strength.
Molecular target: GFP-DYNC1IC1 (UniProt O14576)
Experiment: co-IP; HEK293T cells transfected with GFP or GFP-DYNC1IC1 for 48 h; lysate in IP buffer (50 mM Tris-HCl pH 7.4, 260 mM NaCl, 1% NP-40); precipitated with control IgG or anti-GFP antibody on Protein G magnetic beads at 4 °C; immunoblot

Amino acid sequences for entries named in this document (tags omitted).
UniProt O14576: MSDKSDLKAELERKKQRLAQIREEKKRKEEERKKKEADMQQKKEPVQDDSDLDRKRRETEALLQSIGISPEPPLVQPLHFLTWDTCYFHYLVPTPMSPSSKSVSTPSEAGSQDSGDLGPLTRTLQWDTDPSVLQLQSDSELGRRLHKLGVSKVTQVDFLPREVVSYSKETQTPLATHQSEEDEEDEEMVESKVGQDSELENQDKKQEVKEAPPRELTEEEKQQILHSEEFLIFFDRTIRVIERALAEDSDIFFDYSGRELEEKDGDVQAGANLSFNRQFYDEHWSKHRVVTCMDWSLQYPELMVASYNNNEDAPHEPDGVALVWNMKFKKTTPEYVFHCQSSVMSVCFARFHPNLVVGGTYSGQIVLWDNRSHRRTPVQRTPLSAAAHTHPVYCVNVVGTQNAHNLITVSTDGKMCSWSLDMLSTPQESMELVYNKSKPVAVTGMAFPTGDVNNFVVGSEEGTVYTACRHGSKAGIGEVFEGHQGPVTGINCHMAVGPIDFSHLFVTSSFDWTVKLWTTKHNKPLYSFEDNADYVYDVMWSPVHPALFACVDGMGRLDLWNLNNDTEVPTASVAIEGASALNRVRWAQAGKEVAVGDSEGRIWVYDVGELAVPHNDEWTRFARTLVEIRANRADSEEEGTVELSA
UniProt Q15154: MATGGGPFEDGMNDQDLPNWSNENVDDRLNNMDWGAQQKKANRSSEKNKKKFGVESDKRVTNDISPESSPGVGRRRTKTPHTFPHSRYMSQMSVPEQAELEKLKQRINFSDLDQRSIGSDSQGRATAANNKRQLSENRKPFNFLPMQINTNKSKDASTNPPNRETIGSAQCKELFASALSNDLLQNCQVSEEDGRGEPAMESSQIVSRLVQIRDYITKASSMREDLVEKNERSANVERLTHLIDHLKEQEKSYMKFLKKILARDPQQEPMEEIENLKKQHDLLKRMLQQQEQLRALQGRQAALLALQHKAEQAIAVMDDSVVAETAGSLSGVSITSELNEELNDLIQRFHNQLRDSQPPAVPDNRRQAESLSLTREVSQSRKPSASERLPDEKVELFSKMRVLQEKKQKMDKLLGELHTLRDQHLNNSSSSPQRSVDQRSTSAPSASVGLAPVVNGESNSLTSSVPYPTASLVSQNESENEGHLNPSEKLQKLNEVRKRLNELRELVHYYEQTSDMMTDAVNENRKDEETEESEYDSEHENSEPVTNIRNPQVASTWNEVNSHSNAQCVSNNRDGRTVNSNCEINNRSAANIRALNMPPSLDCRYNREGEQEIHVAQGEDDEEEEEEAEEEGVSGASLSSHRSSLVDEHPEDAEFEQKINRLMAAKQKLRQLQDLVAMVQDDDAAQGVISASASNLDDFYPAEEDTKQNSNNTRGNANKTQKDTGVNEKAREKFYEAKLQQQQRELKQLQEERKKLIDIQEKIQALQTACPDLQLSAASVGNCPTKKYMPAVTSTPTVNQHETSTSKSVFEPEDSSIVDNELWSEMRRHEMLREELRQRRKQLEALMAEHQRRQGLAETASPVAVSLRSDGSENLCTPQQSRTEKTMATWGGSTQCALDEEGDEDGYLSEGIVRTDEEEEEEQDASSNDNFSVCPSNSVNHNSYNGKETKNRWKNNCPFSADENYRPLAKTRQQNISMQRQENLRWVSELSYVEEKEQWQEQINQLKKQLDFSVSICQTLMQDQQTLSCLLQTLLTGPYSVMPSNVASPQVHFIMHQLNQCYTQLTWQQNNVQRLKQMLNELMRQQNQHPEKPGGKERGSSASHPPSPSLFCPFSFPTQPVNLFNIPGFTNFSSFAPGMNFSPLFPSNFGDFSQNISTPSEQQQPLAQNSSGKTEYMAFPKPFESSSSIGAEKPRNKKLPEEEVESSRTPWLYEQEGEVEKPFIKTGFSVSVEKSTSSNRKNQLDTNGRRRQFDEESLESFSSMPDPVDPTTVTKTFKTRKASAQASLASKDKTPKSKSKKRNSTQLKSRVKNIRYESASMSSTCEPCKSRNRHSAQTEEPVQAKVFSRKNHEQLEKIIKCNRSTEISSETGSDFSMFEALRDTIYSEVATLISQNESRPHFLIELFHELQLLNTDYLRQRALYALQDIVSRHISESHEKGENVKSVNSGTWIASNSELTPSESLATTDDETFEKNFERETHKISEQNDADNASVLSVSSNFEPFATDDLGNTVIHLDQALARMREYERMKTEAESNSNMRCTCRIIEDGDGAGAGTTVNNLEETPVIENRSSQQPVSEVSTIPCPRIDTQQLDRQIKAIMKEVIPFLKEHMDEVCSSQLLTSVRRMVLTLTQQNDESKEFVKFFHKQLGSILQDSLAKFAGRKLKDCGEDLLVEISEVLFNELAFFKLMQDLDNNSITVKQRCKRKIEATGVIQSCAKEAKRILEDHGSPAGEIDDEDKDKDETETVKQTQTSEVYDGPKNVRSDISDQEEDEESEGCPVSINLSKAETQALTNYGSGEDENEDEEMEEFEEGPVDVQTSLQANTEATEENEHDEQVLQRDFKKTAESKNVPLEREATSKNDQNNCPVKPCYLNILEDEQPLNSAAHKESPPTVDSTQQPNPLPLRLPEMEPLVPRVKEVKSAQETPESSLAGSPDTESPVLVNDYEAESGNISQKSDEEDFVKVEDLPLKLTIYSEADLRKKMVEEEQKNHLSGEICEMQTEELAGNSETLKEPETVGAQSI

Molecule | binding
Pericentriolar Material-1 (PCM1) (from UniProt Q15154 1-2024) | binds
BBS4 (protein, UniProt Q96RK4 1-519) MAEERVATRTQFPVSTESQKPRQKKAPEFPILEKQNWLIHLHYIRKDYEACKAVIKEQLQETQGLCEYAIYVQALIFRLEGNIQESLELFQTCAVLSPQSADNLKQVARSLFLLGKHKAAIEVYNEAAKLNQKDWEISHNLGVCYIYLKQFNKAQDQLHNALNLNRHDLTYIMLGKIHLLEGDLDKAIEVYKKAVEFSPENTELLTTLGLLYLQLGIYQKAFEHLGNALTYDPTNYKAILAAGSMMQTHGDFDVALTKYRVVACAVPESPPLWNNIGMCFFGKKKYVAAISCLKRANYLAPFDWKILYNLGLVHLTMQQYASAFHFLSAAINFQPKMGELYMLLAVALTNLEDIENAKRAYAEAVHLDKCNPLVNLNYAVLLYNQGEKKNALAQYQEMEKKVSLLKDNSSLEFDSEMVEMAQKLGAALQVGEALVWTKPVKDPKSKHQTTSTSKPASFQQPLGSNQALGQAMSSAAAYRTLPSGAGGTSQFTKPPSLPLEPEPAVESSPTETSEQIREK | binds

— publication PMC6776500
